Source: paper PMC2684528
No constants are given. Whether binding was seen depends on the method and setting. Binding seen in cells or lysates may run through a third protein. For part of these data: Binding can be weak; no strength is given. For part of these data: Tags and fused reporters may be left off the sequences shown.

Sequences of proteins named here, by UniProt entry; tags and fusion partners are left off.
UniProt P49023: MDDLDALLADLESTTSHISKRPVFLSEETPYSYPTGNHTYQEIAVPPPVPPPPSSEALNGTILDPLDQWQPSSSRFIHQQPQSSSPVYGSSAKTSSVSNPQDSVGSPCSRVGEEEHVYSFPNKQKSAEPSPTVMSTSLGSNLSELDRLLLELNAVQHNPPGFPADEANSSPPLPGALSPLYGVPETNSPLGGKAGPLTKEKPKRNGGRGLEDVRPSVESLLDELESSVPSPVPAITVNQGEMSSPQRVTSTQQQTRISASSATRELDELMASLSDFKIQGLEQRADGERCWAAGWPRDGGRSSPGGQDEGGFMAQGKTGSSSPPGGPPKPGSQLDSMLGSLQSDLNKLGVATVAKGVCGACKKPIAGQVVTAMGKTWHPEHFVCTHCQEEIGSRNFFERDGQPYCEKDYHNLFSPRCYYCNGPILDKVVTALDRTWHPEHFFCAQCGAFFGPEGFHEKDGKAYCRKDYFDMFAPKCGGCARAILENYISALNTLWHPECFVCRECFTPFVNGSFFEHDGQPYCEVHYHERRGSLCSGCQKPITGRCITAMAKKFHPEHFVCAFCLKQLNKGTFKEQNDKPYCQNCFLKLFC

How the values were obtained:
[1] = molecular target: T1, FLAG-Nudel (human) (UniProt Q9GZM8); assay: co-IP; exogenous proteins expressed separately in HEK293T cells; cell lysates premixed for 2 h, then co-IP with anti-FLAG resin
T1 sequence: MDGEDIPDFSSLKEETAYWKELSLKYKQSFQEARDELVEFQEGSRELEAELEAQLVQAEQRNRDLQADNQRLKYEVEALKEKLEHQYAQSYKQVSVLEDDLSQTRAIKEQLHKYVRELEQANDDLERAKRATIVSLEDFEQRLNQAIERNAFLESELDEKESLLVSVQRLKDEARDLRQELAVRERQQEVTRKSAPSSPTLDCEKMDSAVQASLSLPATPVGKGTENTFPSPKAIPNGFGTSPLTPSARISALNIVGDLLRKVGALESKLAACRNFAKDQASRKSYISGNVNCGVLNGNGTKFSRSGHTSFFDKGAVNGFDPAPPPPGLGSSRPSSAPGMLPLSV

[2] = molecular target: FLAG-Nudel^C36 (human) (UniProt Q9GZM8); assay: co-IP; lysates of HEK293T cells coexpressing GFP-paxillin and a FLAG fusion protein; anti-FLAG M2 agarose beads 2 h at 4 °C in co-IP buffer (20 mM Tris-HCl pH 7.5, 100 mM KCl, 0.1% NP-40, 1 mM EDTA, 10% glycerol, 1 mM DTT, phosphatase and protease inhibitors); eluted with FLAG peptide; Ponceau S staining and immunoblotting
[3] = molecular target: FLAG-Nudel^N20 (human) (UniProt Q9GZM8); assay: as above

| binding [1] | binding [2] | binding [3] | Substance |
| --- | --- | --- | --- |
| binds | – | – | dynein intermediate chain (DIC) (human (endogenous in HEK293T)) |
| – | no binding | binds | GFP-paxillin (from UniProt P49023 1-591) |
